Source: PMC3509002
The exact form of at least one protein or probe is not confirmed.

Protein sequences, listed by entry. Tags and fused reporters are not part of them. Residues count along the entry.
UniProt P27898, 9-116: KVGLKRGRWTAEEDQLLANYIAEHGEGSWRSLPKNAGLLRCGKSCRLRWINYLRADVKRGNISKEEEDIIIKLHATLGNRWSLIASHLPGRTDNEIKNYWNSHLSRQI

Molecular target: P1-MYB (NHis6-P1MYB) (Zea mays) (UniProt P27898)
Assay: EMSA
Details: EMSA: 10 ng P1MYB with equimolar probe (~10^5 CPM), 30 min; protein stored in 10 mM Tris pH 7.5; recombinant protein; protein details: N-terminal His6; label: 32P 5' end on one primer strand; probe letters rebuilt from the primers and the genome

Sequence	binding result
ACCGTAAGGCCAACTCCAACAATGCCCCCCACTCCCCTACCCCATGTAAGGTGTGGTTTGGAGTAAAAACTCTCTCCAACAATCCCACAACCCACTC (double strand) [Zmf3'h1 promoter probe Pr1-1]	binds
CCACTTGCGTGCTTCATCTAACAATCTAGCTGCTCCTCCTACCTACCCGCGATCTGGAATTTCGTACCTATTTATATTTTTCTTCGCGGGC (double strand) [Zmf3'h1 promoter probe Pr1-2]	binds
